Reference: the supplement of paper PMC10060354, “Discovery of a small molecule ligand of FRS2 that inhibits invasion and tumor growth” (Cellular Oncology, 2022)
Many values rest on one well or one pass, so single values are uncertain.

Protein sequences, listed by entry. Tags and fused reporters are not part of them. Lines headed by an entry give the natural chain unless they say otherwise; changes in a name come on top.
UniProt O15155: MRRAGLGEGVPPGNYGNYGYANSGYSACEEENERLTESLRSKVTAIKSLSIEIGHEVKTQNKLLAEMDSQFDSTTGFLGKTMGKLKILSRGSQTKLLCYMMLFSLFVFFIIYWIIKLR
UniProt Q9BV81: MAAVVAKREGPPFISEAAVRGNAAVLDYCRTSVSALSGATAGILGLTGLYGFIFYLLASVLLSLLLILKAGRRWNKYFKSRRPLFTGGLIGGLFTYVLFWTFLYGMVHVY
UniProt P78371: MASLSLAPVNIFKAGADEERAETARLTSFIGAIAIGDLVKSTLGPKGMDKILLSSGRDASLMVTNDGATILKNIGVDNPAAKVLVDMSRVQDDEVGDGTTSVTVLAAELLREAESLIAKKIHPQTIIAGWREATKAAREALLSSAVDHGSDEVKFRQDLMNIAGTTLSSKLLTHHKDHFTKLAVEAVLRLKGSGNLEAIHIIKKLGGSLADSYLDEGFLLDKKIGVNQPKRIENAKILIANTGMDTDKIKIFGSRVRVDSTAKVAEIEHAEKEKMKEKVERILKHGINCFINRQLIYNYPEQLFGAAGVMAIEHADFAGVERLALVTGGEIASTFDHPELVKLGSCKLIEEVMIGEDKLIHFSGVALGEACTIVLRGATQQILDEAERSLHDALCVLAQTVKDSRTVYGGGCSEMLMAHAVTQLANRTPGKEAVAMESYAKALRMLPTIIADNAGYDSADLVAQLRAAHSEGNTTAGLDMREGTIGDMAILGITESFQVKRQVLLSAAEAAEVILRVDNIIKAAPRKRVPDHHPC
UniProt O96005: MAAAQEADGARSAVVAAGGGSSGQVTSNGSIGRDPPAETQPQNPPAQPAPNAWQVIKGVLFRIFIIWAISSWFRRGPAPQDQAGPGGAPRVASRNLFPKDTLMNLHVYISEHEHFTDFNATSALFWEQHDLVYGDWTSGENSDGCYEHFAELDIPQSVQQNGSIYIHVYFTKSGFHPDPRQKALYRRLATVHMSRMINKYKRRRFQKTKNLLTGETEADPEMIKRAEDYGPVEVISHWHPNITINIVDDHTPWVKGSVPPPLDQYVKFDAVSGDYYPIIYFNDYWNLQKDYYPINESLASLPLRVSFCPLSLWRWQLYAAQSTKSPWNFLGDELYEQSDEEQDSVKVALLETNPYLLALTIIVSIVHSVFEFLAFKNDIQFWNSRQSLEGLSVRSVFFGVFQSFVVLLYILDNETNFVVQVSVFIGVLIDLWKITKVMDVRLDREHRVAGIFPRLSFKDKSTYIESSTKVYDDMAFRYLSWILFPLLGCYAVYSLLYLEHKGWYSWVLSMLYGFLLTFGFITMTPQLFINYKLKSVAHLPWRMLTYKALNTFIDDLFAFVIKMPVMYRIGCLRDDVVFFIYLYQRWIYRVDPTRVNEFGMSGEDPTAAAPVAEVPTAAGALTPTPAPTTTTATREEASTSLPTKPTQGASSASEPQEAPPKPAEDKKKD
UniProt P50148, whole entry: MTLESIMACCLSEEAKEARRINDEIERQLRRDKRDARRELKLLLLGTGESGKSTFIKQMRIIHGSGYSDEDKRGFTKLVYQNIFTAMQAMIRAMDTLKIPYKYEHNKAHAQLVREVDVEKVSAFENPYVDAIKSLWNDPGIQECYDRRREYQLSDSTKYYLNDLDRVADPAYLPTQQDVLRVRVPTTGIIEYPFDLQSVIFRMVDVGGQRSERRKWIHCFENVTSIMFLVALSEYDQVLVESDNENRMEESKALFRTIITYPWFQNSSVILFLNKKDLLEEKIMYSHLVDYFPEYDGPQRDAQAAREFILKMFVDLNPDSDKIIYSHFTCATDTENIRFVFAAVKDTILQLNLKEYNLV
UniProt O75896: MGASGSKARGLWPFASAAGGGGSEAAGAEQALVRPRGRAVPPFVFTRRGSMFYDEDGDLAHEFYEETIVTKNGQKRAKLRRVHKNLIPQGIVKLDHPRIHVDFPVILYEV
UniProt Q96DZ1: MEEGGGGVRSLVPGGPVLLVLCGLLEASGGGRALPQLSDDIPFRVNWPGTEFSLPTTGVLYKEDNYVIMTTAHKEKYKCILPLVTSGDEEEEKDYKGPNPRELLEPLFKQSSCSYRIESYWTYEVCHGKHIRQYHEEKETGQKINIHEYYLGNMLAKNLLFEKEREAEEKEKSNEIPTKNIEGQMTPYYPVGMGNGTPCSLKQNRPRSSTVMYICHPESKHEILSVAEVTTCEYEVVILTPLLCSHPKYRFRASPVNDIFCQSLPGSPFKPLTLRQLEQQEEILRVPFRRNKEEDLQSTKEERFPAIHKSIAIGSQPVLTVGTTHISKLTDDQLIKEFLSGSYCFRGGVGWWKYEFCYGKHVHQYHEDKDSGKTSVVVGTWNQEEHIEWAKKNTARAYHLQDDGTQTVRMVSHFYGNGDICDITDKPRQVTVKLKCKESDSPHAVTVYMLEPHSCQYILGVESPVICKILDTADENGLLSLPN
UniProt P22033: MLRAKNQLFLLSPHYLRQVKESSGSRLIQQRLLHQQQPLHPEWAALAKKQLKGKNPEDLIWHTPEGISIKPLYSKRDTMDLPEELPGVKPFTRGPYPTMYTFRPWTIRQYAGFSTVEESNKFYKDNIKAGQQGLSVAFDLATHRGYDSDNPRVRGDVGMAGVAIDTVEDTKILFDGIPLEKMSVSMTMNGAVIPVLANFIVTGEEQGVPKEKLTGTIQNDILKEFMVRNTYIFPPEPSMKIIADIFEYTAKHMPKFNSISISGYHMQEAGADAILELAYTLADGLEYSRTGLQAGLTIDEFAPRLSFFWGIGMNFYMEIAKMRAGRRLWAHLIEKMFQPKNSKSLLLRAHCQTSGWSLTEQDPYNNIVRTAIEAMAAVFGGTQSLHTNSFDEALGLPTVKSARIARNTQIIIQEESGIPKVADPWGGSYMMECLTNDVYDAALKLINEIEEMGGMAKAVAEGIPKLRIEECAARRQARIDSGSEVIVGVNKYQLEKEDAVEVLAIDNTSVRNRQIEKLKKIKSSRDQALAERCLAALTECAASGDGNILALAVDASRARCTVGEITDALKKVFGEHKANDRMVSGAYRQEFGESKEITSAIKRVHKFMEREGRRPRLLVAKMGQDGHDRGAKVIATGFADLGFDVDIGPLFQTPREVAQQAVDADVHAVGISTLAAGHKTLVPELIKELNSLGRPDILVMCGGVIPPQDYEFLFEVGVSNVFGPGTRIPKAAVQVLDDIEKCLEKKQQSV
UniProt Q9UDT6: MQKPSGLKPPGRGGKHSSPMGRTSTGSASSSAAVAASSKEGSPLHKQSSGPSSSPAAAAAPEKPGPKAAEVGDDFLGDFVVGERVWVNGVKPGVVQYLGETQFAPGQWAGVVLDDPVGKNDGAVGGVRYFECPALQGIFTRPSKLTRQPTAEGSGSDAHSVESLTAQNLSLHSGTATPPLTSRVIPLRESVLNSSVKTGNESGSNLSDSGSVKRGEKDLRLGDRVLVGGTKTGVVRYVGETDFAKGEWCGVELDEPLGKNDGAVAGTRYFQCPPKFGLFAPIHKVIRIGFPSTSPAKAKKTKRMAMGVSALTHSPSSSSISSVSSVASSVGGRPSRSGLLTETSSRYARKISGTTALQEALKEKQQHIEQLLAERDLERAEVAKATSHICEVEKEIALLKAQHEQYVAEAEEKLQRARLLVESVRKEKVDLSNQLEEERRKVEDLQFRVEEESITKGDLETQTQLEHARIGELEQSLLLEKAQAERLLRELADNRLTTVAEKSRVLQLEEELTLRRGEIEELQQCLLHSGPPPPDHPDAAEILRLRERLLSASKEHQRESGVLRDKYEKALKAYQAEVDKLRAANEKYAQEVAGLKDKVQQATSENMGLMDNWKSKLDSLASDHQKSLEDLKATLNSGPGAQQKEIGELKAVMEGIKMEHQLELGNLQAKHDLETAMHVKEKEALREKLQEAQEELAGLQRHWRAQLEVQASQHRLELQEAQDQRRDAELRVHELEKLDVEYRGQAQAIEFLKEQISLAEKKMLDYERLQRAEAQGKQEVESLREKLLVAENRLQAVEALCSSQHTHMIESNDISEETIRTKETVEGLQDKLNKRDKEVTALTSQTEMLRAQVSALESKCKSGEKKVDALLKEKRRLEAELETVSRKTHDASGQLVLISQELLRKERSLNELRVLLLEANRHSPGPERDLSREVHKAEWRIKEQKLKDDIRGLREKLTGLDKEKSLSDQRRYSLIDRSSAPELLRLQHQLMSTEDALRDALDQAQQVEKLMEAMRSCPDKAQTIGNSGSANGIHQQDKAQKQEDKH
UniProt Q8TAE6: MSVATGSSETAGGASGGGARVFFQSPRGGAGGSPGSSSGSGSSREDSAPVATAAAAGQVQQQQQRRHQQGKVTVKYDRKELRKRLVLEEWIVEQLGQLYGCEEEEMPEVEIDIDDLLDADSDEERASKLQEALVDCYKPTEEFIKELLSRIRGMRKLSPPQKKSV
UniProt P17081: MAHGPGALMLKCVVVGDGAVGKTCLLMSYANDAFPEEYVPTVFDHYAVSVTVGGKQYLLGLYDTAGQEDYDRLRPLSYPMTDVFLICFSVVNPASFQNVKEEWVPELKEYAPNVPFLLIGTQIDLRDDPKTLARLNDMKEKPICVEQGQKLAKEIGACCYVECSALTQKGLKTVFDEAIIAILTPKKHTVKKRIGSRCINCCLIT
UniProt Q92766: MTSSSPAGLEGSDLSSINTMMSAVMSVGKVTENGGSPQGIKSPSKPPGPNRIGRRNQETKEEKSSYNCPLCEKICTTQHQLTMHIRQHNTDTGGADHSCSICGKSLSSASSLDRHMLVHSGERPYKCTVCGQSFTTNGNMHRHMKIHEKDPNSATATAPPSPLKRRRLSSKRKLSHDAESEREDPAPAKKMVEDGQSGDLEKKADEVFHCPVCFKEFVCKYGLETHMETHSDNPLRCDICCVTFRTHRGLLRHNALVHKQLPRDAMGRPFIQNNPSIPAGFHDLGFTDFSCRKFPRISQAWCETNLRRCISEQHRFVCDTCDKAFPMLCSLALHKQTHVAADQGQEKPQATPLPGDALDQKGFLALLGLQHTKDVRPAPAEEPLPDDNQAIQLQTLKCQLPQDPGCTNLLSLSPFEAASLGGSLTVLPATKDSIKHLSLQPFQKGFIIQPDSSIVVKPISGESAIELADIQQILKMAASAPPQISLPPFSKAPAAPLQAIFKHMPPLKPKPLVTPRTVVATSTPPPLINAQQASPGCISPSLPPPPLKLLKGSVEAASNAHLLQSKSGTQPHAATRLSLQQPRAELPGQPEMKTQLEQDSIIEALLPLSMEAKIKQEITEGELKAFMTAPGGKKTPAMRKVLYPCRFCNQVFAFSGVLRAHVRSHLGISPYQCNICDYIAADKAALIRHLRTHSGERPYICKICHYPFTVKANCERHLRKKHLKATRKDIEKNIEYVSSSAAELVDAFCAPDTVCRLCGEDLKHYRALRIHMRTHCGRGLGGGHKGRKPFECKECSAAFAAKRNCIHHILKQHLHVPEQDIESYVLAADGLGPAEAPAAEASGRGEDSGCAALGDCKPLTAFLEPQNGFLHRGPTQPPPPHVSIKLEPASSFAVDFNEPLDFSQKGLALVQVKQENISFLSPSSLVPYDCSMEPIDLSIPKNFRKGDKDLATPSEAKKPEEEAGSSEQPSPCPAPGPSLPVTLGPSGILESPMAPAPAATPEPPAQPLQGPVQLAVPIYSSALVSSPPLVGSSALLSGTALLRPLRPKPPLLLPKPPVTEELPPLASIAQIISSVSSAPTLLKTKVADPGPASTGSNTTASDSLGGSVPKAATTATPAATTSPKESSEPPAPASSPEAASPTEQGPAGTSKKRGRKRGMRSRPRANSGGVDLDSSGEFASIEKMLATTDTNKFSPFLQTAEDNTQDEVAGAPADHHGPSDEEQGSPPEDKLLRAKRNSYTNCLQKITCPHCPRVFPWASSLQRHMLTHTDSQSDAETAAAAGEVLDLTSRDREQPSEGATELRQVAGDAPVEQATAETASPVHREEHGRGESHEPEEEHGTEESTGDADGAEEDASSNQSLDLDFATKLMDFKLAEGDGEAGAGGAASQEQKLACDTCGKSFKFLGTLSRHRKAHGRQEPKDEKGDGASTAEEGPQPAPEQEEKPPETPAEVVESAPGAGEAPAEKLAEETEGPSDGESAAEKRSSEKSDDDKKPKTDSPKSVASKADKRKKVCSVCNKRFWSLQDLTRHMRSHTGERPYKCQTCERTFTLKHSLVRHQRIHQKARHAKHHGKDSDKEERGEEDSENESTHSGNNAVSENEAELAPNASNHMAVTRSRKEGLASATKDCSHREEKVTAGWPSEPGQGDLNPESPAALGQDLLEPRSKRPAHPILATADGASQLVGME
UniProt P19623: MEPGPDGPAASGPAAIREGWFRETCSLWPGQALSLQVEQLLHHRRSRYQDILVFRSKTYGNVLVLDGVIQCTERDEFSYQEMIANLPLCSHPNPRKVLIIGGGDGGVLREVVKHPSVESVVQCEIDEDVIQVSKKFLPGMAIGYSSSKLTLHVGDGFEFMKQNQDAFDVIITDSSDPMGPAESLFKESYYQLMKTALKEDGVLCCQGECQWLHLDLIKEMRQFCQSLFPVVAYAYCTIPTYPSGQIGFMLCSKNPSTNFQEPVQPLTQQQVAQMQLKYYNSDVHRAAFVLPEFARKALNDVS

Compound: [O-][N+](C(C1=C(C(O)=C2)NC(C(C=C3)=CC=C3Cl)C4C1C=CC4)=C2Cl)=O
Experiment: melting temperature shift (compound 7 minus DMSO); higher = compound stabilises the protein
Settings: 10 µM
Protocol: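 Thermal proteome profiling (TMT mass spectrometry) in intact DAOY medulloblastoma cells or DAOY lysates treated with 10 µM compound 7 or DMSO, heated at 10 temperatures from 40.5 to 73.8 °C for 3 min. Melting curves were fitted with the Bioconductor TPP package, and the melting point difference between compound and vehicle is reported per protein (single curve per condition).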

[1] = system: DAOY cell lysate, treatment time: 20 min, 4 °C
[2] = system: intact DAOY cells, treatment time: 90 min, 37 °C

Row | Target | melting temperature shift [1] | melting temperature shift [2]
1 | SPAG5 (UniProt Q96R06) | -1.37 °C | -3.08 °C
2 | DCAF7 (UniProt P61962) | -0.517 °C | 0.238 °C
3 | VPS26B (UniProt Q4G0F5) | -0.164 °C | 0.395 °C
4 | UniProt Q8NDN9 | – | -0.259 °C
5 | EMC8 (UniProt O43402) | 1.26 °C | -0.263 °C
6 | DYNLL2 (UniProt Q96FJ2) | -1.4 °C | –
7 | SURF6 (UniProt O75683) | 0.633 °C | 2.1 °C
8 | NUP153 (UniProt P49790) | 0.188 °C | -0.611 °C
9 | NOMO1 (UniProt Q15155) | 0.551 °C | -0.175 °C
10 | CXORF38 (UniProt Q8TB03) | -0.665 °C | -0.282 °C
11 | TRAPPC10 (UniProt P48553) | -1.28 °C | -2.25 °C
12 | RRS1 (UniProt Q15050) | 0.565 °C | 0.553 °C
13 | UniProt Q86UA6 | – | -0.0633 °C
14 | FAM98A (UniProt Q8NCA5) | -0.302 °C | 0.629 °C
15 | RBM26 (UniProt Q5T8P6) | -1.23 °C | -1.04 °C
16 | PREB (UniProt Q9HCU5) | 1.53 °C | 1.65 °C
17 | UBE4B (UniProt O95155) | -0.212 °C | 0.825 °C
18 | G3BP1 (UniProt Q13283) | 0.239 °C | -0.0908 °C
19 | LARP4B (UniProt Q92615) | -0.155 °C | 0.884 °C
20 | RBBP6 (UniProt Q7Z6E9) | 0.0222 °C | –
21 | UniProt Q9BUP0 | – | -0.881 °C
22 | CD58 (UniProt P19256) | -0.207 °C | –
23 | DCTN5 (UniProt Q9BTE1) | 0.766 °C | 0.092 °C

Row | Target | melting temperature shift [1] | melting temperature shift [2]
24 | UniProt P21980 | -0.626 °C | 0.0299 °C
25 | CHORDC1 (UniProt Q9UHD1) | -0.242 °C | 0.0505 °C
26 | BET1 (UniProt O15155) | 0.0991 °C | –
27 | DDX28 (UniProt Q9NUL7) | 4.68 °C | –
28 | UniProt Q9BV81 | 1.55 °C | –
29 | ACLY (UniProt P53396) | -0.0791 °C | 0.644 °C
30 | PIK3C2A (UniProt O00443) | -0.412 °C | -1.44 °C
31 | AKAP9 (UniProt Q99996) | -0.321 °C | 0.875 °C
32 | CCT2 (UniProt P78371) | -0.343 °C | -0.441 °C
33 | UniProt Q8NA31 | -2.64 °C | –
34 | ITGA2 (UniProt P17301) | 1.4 °C | -0.728 °C
35 | UniProt Q14699 | 1.87 °C | -0.15 °C
36 | UniProt Q86U28 | 0.198 °C | -0.516 °C
37 | CKAP2 (UniProt Q8WWK9) | 0.0873 °C | 0.887 °C
38 | CLPTM1 (UniProt O96005) | 1.35 °C | 0.261 °C
39 | POLR3C (UniProt Q9BUI4) | -0.749 °C | -0.419 °C
40 | ELP6 (UniProt Q0PNE2) | -0.793 °C | 2.01 °C
41 | GNAQ (UniProt P50148) | 1.5 °C | -1.42 °C
42 | MFN1 (UniProt Q8IWA4) | 1.21 °C | 0.504 °C
43 | ERGIC1 (UniProt Q969X5) | 1.11 °C | -0.781 °C
44 | UniProt O75896 | 0.991 °C | –
45 | DHX38 (UniProt Q92620) | -0.0805 °C | -0.144 °C
46 | NDUFS1 (UniProt P28331) | 1.4 °C | -0.853 °C

Row | Target | melting temperature shift [1] | melting temperature shift [2]
47 | SLC4A7 (UniProt Q9Y6M7) | 1.57 °C | 1.49 °C
48 | OTULIN (UniProt Q96BN8) | -0.694 °C | -0.512 °C
49 | RNPEP (UniProt Q9H4A4) | -0.432 °C | 0.17 °C
50 | SNX8 (UniProt Q9Y5X2) | -0.789 °C | -1.68 °C
51 | UniProt Q13206 | 0.474 °C | –
52 | FAM129B (UniProt Q96TA1) | -0.262 °C | -0.363 °C
53 | UniProt P08253 | 1.96 °C | 1.33 °C
54 | UniProt P83881 | 0.588 °C | -0.809 °C
55 | UniProt Q7L190 | -1.57 °C | –
56 | PSMD11 (UniProt O00231) | -0.424 °C | -0.795 °C
57 | NDUFA2 (UniProt O43678) | 0.632 °C | -0.154 °C
58 | ZC3H4 (UniProt Q9UPT8) | 1.06 °C | –
59 | UniProt Q96HR3 | – | 1.03 °C
60 | DOCK6 (UniProt Q96HP0) | 2.17 °C | -0.196 °C
61 | UniProt P10915 | 0.403 °C | –
62 | UniProt O14556 | – | -0.26 °C
63 | ANAPC5 (UniProt Q9UJX4) | -0.263 °C | 1.55 °C
64 | PRRC1 (UniProt Q96M27) | -3.01 °C | 3.86 °C
65 | NSDHL (UniProt Q15738) | 1.29 °C | 2.85 °C
66 | MYO9B (UniProt Q13459) | -0.767 °C | -0.23 °C
67 | FADD (UniProt Q13158) | -1.16 °C | -1.12 °C
68 | TMTC3 (UniProt Q6ZXV5) | 0.168 °C | -0.436 °C
69 | ERLEC1 (UniProt Q96DZ1) | 0.977 °C | -0.0874 °C

Part of the list above, in CSV form.
Row,Target,melting temperature shift [1],melting temperature shift [2]
55,UniProt Q7L190,-1.57 °C,–
56,PSMD11 (UniProt O00231),-0.424 °C,-0.795 °C
57,NDUFA2 (UniProt O43678),0.632 °C,-0.154 °C
58,ZC3H4 (UniProt Q9UPT8),1.06 °C,–
59,UniProt Q96HR3,–,1.03 °C

Following part:

Row | Target | melting temperature shift [1] | melting temperature shift [2]
70 | HSPA13 (UniProt P48723) | 0.812 °C | 0.197 °C
71 | MUT (UniProt P22033) | 0.345 °C | -0.969 °C
72 | MRPL17 (UniProt Q9NRX2) | 1.91 °C | -1.68 °C
73 | NUP205 (UniProt Q92621) | 0.289 °C | -0.923 °C
74 | SRFBP1 (UniProt Q8NEF9) | 0.7 °C | –
75 | GNE (UniProt Q9Y223) | 0.0801 °C | -1.07 °C
76 | UniProt Q9H9S4 | – | -0.457 °C
77 | CCNA2 (UniProt P20248) | -0.625 °C | -0.584 °C
78 | NUP62 (UniProt P37198) | 0.0977 °C | 1.7 °C
79 | HOOK1 (UniProt Q9UJC3) | -0.173 °C | –
80 | DERL2 (UniProt Q9GZP9) | 0.924 °C | -2.66 °C
81 | UniProt Q9NYZ1 | 1.75 °C | –
82 | NFYA (UniProt P23511) | 0.03 °C | -0.407 °C
83 | UniProt P10589 | – | -2.84 °C
84 | UniProt Q8NI60 | 0.382 °C | -1.22 °C
85 | RAN (UniProt P62826) | -0.428 °C | -0.476 °C
86 | CCNH (UniProt P51946) | -0.807 °C | -0.921 °C
87 | COX15 (UniProt Q7KZN9) | 3.09 °C | 0.123 °C
88 | CLIP2 (UniProt Q9UDT6) | 0.13 °C | 0.25 °C
89 | WASF1 (UniProt Q92558) | -0.67 °C | –
90 | UniProt Q01081 | 1.78 °C | -1.08 °C
91 | MIS18A (UniProt Q9NYP9) | 0.0474 °C | -1.13 °C
92 | TWF2 (UniProt Q6IBS0) | -0.0299 °C | 0.881 °C

Row | Target | melting temperature shift [1] | melting temperature shift [2]
93 | IGSF3 (UniProt O75054) | – | -0.0448 °C
94 | UniProt Q6XE24 | – | -0.0866 °C
95 | UniProt P54826 | – | -0.845 °C
96 | AIP (UniProt O00170) | -0.592 °C | -0.165 °C
97 | UniProt Q8TAE6 | -4.55 °C | 0.554 °C
98 | UniProt Q9Y6J9 | -0.0579 °C | -0.772 °C
99 | UniProt P17081 | – | -2.07 °C
100 | UniProt Q92766 | -0.372 °C | –
101 | GDE1 (UniProt Q9NZC3) | 0.815 °C | 3.6 °C
102 | UniProt P36959 | – | 0.547 °C
103 | TOX4 (UniProt O94842) | -0.113 °C | -1.56 °C
104 | RNF126 (UniProt Q9BV68) | -3.34 °C | –
105 | ACOT7 (UniProt O00154) | -0.103 °C | 0.369 °C
106 | UBE2A (UniProt P49459) | -0.0898 °C | –
107 | SLC25A22 (UniProt Q9H936) | 2.25 °C | -2.04 °C
108 | YRDC (UniProt Q86U90) | -0.463 °C | 0.0187 °C
109 | OSTF1 (UniProt Q92882) | -0.115 °C | -0.266 °C
110 | PRPF39 (UniProt Q86UA1) | 0.221 °C | -2.91 °C
111 | IFRD2 (UniProt Q12894) | -2.37 °C | –
112 | SRM (UniProt P19623) | -0.0548 °C | -1.14 °C
113 | UTP6 (UniProt Q9NYH9) | 0.815 °C | –
